{"source": "PubChem BioAssay AID504834", "about": "(National Center for Advancing Translational Sciences (NCATS), 2011)", "note": "About 22,000 (6.9%) of roughly 320,000 compounds were called active. Inconclusive means that the source gave no clear call. Such entries were picked first, then a sample of the others. Calls follow the shape of the dose curve; as a rule, active = well fitted inhibition curve with a large enough effect; inconclusive = small, poorly fitted or top-dose-only effect, or another doubt; inactive = no such curve, though single readings can be large or run the other way. Potencies beside an inconclusive call are fits to weak or partial responses and may not hold up. Potency is read from the fitted curve at half-maximal effect.", "data": [{"assay": "Primary qHTS for delayed death inhibitors of the malarial parasite plastid, 96 hour incubation", "settings": "P. falciparum luciferase reporter growth; series mostly up to 28.7 µM", "summary_of_the_method": "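Luminescence readout: decreased luciferase signal marks inhibited growth of reporter-expressing P. falciparum in infected red cells (2% hematocrit, 0.05% parasitemia final), exposed to compound two generations (96 h, 37 C, 5% CO2).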", "values": [{"compound": "O=C(CN1C(=O)NC2(CCCC2)C1=O)Nc1cc(Cl)ccc1Oc1ccccc1", "Potency": "inconclusive: 9.28 µM [inhibitor, partial curve]"}, {"compound": "Cc1ccc2nc(NC(=O)c3ccc(OCC4CCCO4)cc3)sc2c1", "note": "(stereo not given)", "Potency": "inconclusive: 13.1 µM [inhibitor, single point]"}, {"compound": "c1cnc(N2CCN(Cc3ccc4c(c3)OCO4)CC2)nc1", "Potency": "inconclusive: 15.1 µM [inhibitor, single point]"}, {"compound": "CN(C)S(=O)(=O)c1ccc(SCC(=O)Nc2ccc3c(c2)OCCO3)nc1", "Potency": "inactive"}, {"compound": "NC(=O)COC(=O)[C@H](Cc1c[nH]c2ccccc12)NC(=O)c1ccc(F)cc1", "Potency": "inactive"}, {"compound": "O=C(CCn1c(=S)oc2ccccc21)Nc1cccc(F)c1", "Potency": "inactive"}, {"compound": "CC1(C)CCC(=O)N2CC[C@H]3C[C@H](OC(=O)Nc4ccc(Br)cc4)C[C@@H]1[C@H]32", "Potency": "inactive"}, {"compound": "C/C(=N/NC(=O)c1ccoc1C)c1ccc(NC(=O)c2ccncc2)cc1", "Potency": "inactive"}, {"compound": "COc1cc(/C=C2/C(=O)NN(c3cccc(C)c3)C2=O)cc([N+](=O)[O-])c1O", "Potency": "inactive"}, {"compound": "CCS(=O)(=O)c1nc(S(=O)(=O)c2ccc(C)cc2)c(N2CCOCC2)s1", "Potency": "inconclusive: 20.8 µM [inhibitor, single point]"}, {"compound": "CN(CCc1ccccn1)C(=O)c1ccc(OC2CCN(Cc3ccccn3)CC2)cc1", "Potency": "inactive"}, {"compound": "S=C(c1ccccc1)N1CCCC1", "Potency": "inconclusive: 18.5 µM [inhibitor, single point]"}, {"compound": "COC(=O)c1c(NC(=O)CC2SC(N)=NC2=O)sc2c1CCC(C(C)(C)C)C2", "note": "(stereo not given)", "Potency": "inconclusive: 11.7 µM [inhibitor, single point]"}, {"compound": "COC(=O)Nc1ccc(NC(C)=O)cc1", "Potency": "inactive"}, {"compound": "COc1cc(C(=O)Nc2ccc(S(=O)(=O)Nc3nccc(C)n3)cc2)c([N+](=O)[O-])cc1OC", "Potency": "inconclusive: 2.33 µM [inhibitor, partial curve, poor fit]"}, {"compound": "CCOc1ccccc1CSc1nc2ccccc2[nH]1", "Potency": "inconclusive: 18.5 µM [inhibitor, single point]"}, {"compound": "O=C(CC(C(=O)O)c1ccccc1)c1cccs1", "note": "(stereo not given)", "Potency": "inconclusive: 20.8 µM [inhibitor, partial curve, poor fit]"}, {"compound": "CC1(C)CC(=O)C2=C(C1)N(c1ccc(Cl)cc1)C(=O)C2(O)C(F)(F)F", "note": "(stereo not given)", "Potency": "inactive"}, {"compound": "CC(C)(C)OC(=O)NCCc1nnc(SCC(=O)Nc2ccc(Br)cc2)o1", "Potency": "inactive"}, {"compound": "CCOC(=O)C(=O)N=Nc1c(O)[nH]c2ccccc12", "Potency": "inactive"}, {"compound": "Cc1cccc(CNc2ncnc3ccc(-c4ccoc4)cc23)c1", "Potency": "active: 8.28 µM"}, {"compound": "Cc1ccccc1NC(=O)OCc1cccnc1Oc1ccc(Cl)cc1", "Potency": "inconclusive: 14.7 µM [inhibitor, single point]"}, {"compound": "O=C(c1cc(COc2ccc(F)cc2F)on1)N1CCCC(c2ccccc2)C1", "note": "(stereo not given)", "Potency": "inactive"}, {"compound": "Cc1c(Cc2ccccc2)c(=O)oc2c(C)c(OCC(=O)N3CCC(C(=O)O)CC3)ccc12", "Potency": "inconclusive: 10.4 µM [inhibitor, single point]"}, {"compound": "OC1(c2cccc(F)c2)CCN(Cc2ccncc2)CC1", "Potency": "inconclusive: 10.4 µM [inhibitor, partial curve, poor fit]"}, {"compound": "COc1cc(C(=O)NCC(=O)N/N=C(/C)c2cccs2)cc(OC)c1OC", "Potency": "active: 1.65 µM"}, {"compound": "Oc1oc(-c2ccc(Br)cc2)nc1/C=N/c1ccccn1", "Potency": "inactive"}, {"compound": "CCN1CCN(C(c2cccnc2)c2cc(Cl)c3cccnc3c2O)CC1", "note": "(stereo not given)", "Potency": "active: 10.4 µM"}, {"compound": "Cc1ccccc1OCC(=O)N(Cc1nnc(-c2ccc(Cl)cc2)o1)C(C)C", "Potency": "inconclusive: 11.7 µM [inhibitor, single point]"}, {"compound": "O=C(/C=C/c1ccc(S(=O)(=O)N2CCOCC2)cc1)N1CCCCC1", "Potency": "inconclusive: 4.15 µM [inhibitor, partial curve]"}, {"compound": "Cc1ccc(NS(=O)(=O)c2cc(NC(=O)C(C)Oc3ccccc3)ccc2C)c(C)c1", "note": "(stereo not given)", "Potency": "inconclusive: 13.1 µM [inhibitor, partial curve, poor fit]"}, {"compound": "C=CCn1c(O)c(N=Nc2c(C)n(C)n(-c3ccccc3)c2=O)c(=O)[nH]c1=S", "Potency": "active: 6.57 µM"}, {"compound": "Clc1ccc(C[n+]2cc(-c3ccccc3)n3c2CCC3)cc1Cl", "Potency": "inconclusive: 0.0029 µM [inhibitor, full curve, poor fit]"}, {"compound": "CCCN1CCc2c(sc(NC(=O)CCS(=O)(=O)c3ccccc3)c2C(N)=O)C1", "Potency": "inconclusive: 9.28 µM [inhibitor, single point]"}, {"compound": "COC(=O)c1cccc(NC(=S)N2CCN(C)CC2)c1", "Potency": "inconclusive: 18.5 µM [inhibitor, single point]"}, {"compound": "CCCc1nc(NCc2ccco2)c(C#N)c2c1COC(C)(C)C2", "Potency": "inconclusive: 6.57 µM [inhibitor, partial curve]"}, {"compound": "N#Cc1ccc(OCC(=O)NNC(=S)NC2CCCCC2)cc1", "Potency": "inactive"}, {"compound": "Cc1ccccc1N1CCN(CC(=O)Nc2ccccc2C(=O)NC2CC2)CC1", "Potency": "inconclusive: 18.5 µM [inhibitor, single point]"}, {"compound": "CCC(=O)OCCNc1cc(Sc2nc3ccccc3[nH]2)c2nonc2c1[N+](=O)[O-]", "Potency": "inconclusive: 16.5 µM [inhibitor, partial curve, poor fit]"}, {"compound": "CC(C)=CCC/C(C)=C/Cc1c(O)ccc(C(=O)/C=C/c2ccc(O)cc2)c1O", "Potency": "active: 8.28 µM"}, {"compound": "COc1ccc(S(=O)(=O)N2CCCCCC2)cc1N(C)S(=O)(=O)c1ccccc1", "Potency": "inconclusive: 13.1 µM [inhibitor, single point]"}, {"compound": "CSc1cccc(NC(=O)C2CCN(S(=O)(=O)c3ccc(F)cc3)CC2)c1", "Potency": "inconclusive: 13.1 µM [inhibitor, single point]"}, {"compound": "Cc1oc(-c2cccs2)nc1CS(=O)CC(=O)NCCc1ccccc1", "note": "(stereo not given)", "Potency": "inconclusive: 11.7 µM [inhibitor, single point]"}, {"compound": "Cc1ccc(N2C(=O)NC(=O)/C(=C\\c3ccsc3)C2=O)cc1C", "Potency": "active: 7.38 µM"}, {"compound": "O=C(CN1C(=O)CCSc2ccccc21)Nc1ccc(F)cc1", "Potency": "inconclusive: 8.28 µM [inhibitor, partial curve, poor fit]"}, {"compound": "Cc1ncc([N+](=O)[O-])n1CCN1C(=O)c2ccccc2C1=O", "Potency": "inconclusive: 2.33 µM [inhibitor, partial curve, poor fit]"}, {"compound": "COc1ccc(CCNC(=O)c2cc3c(=O)n4cccc(C)c4nc3s2)cc1OC", "Potency": "inconclusive: 11.7 µM [inhibitor, partial curve, poor fit]"}, {"compound": "Nc1c(Cl)cc(C2=NCCn3c2c2ccc([N+](=O)[O-])cc2[n+]3[O-])cc1Cl", "Potency": "inconclusive: 18.5 µM [inhibitor, single point]"}, {"compound": "O=C(CSc1nc2ccccc2c(=O)n1-c1ccccc1)N1CCC1", "Potency": "inconclusive: 0.329 µM [inhibitor, full curve, poor fit]"}, {"compound": "CC(CCc1ccccc1)N1CCN(C)CC1", "note": "(stereo not given)", "Potency": "inconclusive: 14.7 µM [inhibitor, single point]"}, {"compound": "Cc1ccc2c(c1)C1(SCCS1)C(=O)N2", "Potency": "inconclusive: 0.0047 µM [inhibitor, full curve, poor fit]"}, {"compound": "Cc1cccn2c(=O)c3cc(C#N)c(=O)n(Cc4cccnc4)c3nc12", "Potency": "inconclusive: 11.7 µM [inhibitor, single point]"}, {"compound": "CC(C)c1cc(C(=O)N2CCCC(Nc3ccc(F)cc3)C2)nc(N)n1", "note": "(stereo not given)", "Potency": "inactive"}, {"compound": "CC(=O)OC[C@H]1O[C@H](CCO/N=C(\\C)CCN2CCCc3nc(C)c(C)cc32)C=C[C@@H]1OC(C)=O", "Potency": "inconclusive: 18.5 µM [inhibitor, single point]"}, {"compound": "CCOc1ccc(/C=N/Nc2nc(C)cs2)c(O)c1", "Potency": "inactive"}, {"compound": "O=C(Nc1nc(-c2ccccn2)cs1)c1cccc(S(=O)(=O)N2CCOCC2)c1", "Potency": "inconclusive: 3.7 µM [inhibitor, full curve, poor fit]"}, {"compound": "CCC1=NN2C(=N)/C(=C\\c3ccc(SCc4ccco4)o3)C(=O)N=C2S1", "Potency": "inconclusive: 18.5 µM [inhibitor, single point]"}, {"compound": "Cc1cccc(N(Cc2ccccc2)C(=O)c2ccc(CS(C)(=O)=O)cc2)c1", "Potency": "inconclusive: 13.1 µM [inhibitor, partial curve]"}, {"compound": "CN(C)C(=O)c1cc(C(=O)Cc2ccccc2)c[nH]1", "Potency": "inactive"}, {"compound": "COc1ccccc1-c1cc(C(F)(F)F)nc(S(=O)(=O)CCCC(=O)NC(C)C)n1", "Potency": "inactive"}, {"compound": "CCOc1cc(C(=S)N2CCC(O)CC2)ccc1OS(=O)(=O)c1ccc(Br)cc1", "Potency": "inconclusive: 0.0329 µM [inhibitor, full curve, poor fit]"}, {"compound": "COc1ccc(OC(C)C(=O)N(C)Cc2nc(-c3ccc(C)cc3)no2)cc1", "note": "(stereo not given)", "Potency": "inconclusive: 4.15 µM [inhibitor, partial curve, poor fit]"}, {"compound": "O=C(O)C1CCC(Cn2c(SCc3cc(=O)n4ccccc4n3)nc3ccsc3c2=O)CC1", "note": "(stereo not given)", "Potency": "inconclusive: 5.86 µM [inhibitor, partial curve]"}, {"compound": "CCS(=O)(=O)c1ncc(CO)n1CCc1ccccc1", "Potency": "inconclusive: 18.5 µM [inhibitor, single point]"}, {"compound": "CNC(=O)c1sccc1-n1cccc1", "Potency": "inactive"}, {"compound": "O=C(CO)N/N=C/c1cccc(Cl)c1Cl", "Potency": "inconclusive: 18.5 µM [inhibitor, single point]"}, {"compound": "COc1cc(/C=N\\NC(=O)CNC(=O)C(c2ccccc2)c2ccccc2)ccc1O", "Potency": "inconclusive: 1.65 µM [inhibitor, full curve]"}, {"compound": "CCOc1ncccc1C(=O)OCC(=O)c1c[nH]c2ccccc12", "Potency": "inactive"}, {"compound": "CCc1ncnc2cc(OC)c(OC)cc12", "Potency": "inconclusive: 8.49 µM [inhibitor, partial curve, poor fit]"}, {"compound": "CCC(=O)c1ccc(OC)c(OC)c1O", "Potency": "inactive"}]}]}
